Results taken from paper PMC12490858.
Results are given in words; binding and its absence hold for the method and conditions named.

Target: T1, CCCTC-binding factor (CTCF) (mouse (endogenous in thymocytes)), Q61164
T1 chain: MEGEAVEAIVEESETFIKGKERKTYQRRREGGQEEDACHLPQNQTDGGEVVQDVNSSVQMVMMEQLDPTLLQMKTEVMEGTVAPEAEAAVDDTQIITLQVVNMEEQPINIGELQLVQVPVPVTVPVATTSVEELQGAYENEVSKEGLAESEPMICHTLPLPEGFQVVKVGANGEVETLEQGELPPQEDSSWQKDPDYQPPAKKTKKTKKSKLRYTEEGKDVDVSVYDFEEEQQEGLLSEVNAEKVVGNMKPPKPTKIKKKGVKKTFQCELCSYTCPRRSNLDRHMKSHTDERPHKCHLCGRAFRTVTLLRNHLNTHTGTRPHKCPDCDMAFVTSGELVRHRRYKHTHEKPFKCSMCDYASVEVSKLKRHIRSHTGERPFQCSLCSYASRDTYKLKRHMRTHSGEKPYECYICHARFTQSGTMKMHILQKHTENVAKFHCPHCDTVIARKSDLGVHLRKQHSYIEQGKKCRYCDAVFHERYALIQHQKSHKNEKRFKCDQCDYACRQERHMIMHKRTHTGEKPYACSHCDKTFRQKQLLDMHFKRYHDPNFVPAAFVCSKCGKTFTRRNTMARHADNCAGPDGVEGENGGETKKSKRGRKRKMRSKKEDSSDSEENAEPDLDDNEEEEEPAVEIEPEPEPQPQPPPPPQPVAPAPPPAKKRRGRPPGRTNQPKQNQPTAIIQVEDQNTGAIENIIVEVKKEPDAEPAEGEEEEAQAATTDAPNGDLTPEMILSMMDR
Test: urea ChIP-Western; formaldehyde-crosslinked thymocyte chromatin purified by 8 M urea ultracentrifugation and sonicated (~10 ug chromatin-DNA); immunoprecipitated with the indicated antibody on Protein-A beads, washed 6 times, reverse-crosslinked at 65 C; released proteins detected by western blot
Conditions: remark: other sources report otherwise

binding: no binding
B1: SATB1, Q60611 1-764 (protein)
chain: MDHLNEATQGKEHSEMSNNVSDPKGPPAKIARLEQNGSPLGRGRLGSTGGKMQGVPLKHSGHLMKTNLRKGTMLPVFCVVEHYENAIEYDCKEEHAEFVLVRKDMLFNQLIEMALLSLGYSHSSAAQAKGLIQVGKWNPVPLSYVTDAPDATVADMLQDVYHVVTLKIQLHSCPKLEDLPPEQWSHTTVRNALKDLLKDMNQSSLAKECPLSQSMISSIVNSTYYANVSAAKCQEFGRWYKHFKKTKDMMVEMDSLSELSQQGANHVNFGQQPVPGNTAEQPPSPAQLSHGSQPSVRTPLPNLHPGLVSTPISPQLVNQQLVMAQLLNQQYAVNRLLAQQSLNQQYLNHPPPVSRSMNKPLEQQVSTNTEVSSEIYQWVRDELKRAGISQAVFARVAFNRTQGLLSEILRKEEDPKTASQSLLVNLRAMQNFLQLPEAERDRIYQDERERSLNAASAMGPAPLLSTPPSRPPQVKTATLATERNGKPENNTMNINASIYDEIQQEMKRAKVSQALFAKVAATKSQGWLCELLRWKEDPSPENRTLWENLSMIRRFLSLPQPERDAIYEQESNAVHHHGDRPPHIIHVPAEQIQQQQQQQQQQQQQQQPPPPPPQPQPQPQAGPRLPPRQPTVASSAESDEENRQKTRPRTKISVEALGILQSFIQDVGLYPDEEAIQTLSAQLDLPKYTIIKFFQNQRYYLKHHGKLKDNSGLEVDVAEYKDEELLKDLEESVQDKNANTLFSVKLEEELSVEGSTDVNADLKD
